Test results taken from paper PMC6801678.
These are yes or no findings as the source states them, for the method shown. In cells and extracts the contact can be indirect. Some entries that bind do so weakly or less than the wild type. Tags and fused reporters may be left off the sequences shown.

By UniProt entry, the sequences of proteins in these tests, tags left out. Where a name states a change or a piece, a line headed by the entry shows the natural chain unless it says otherwise. Residues count along the entry.
UniProt Q8N4S9: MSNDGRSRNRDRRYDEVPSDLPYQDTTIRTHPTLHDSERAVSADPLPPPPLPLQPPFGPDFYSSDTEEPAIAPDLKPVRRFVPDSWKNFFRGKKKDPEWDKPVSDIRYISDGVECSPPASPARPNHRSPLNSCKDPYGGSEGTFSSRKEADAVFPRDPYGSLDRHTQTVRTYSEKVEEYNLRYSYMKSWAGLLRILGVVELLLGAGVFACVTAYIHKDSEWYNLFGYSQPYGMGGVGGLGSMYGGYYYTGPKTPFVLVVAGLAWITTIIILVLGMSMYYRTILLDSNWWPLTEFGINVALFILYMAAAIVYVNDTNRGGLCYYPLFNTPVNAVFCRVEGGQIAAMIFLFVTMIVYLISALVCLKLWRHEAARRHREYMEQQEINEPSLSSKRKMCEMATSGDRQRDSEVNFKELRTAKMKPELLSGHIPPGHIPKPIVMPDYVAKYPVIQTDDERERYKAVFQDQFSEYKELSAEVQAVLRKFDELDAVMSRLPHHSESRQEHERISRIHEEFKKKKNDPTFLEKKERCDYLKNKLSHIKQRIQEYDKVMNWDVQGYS
FLAG3-Tric∆487–558, tricellulin lacking amino acids 487–558: residues 1-486 of Q8N4S9
FLAG3-Tric∆441–558, tricellulin lacking amino acids 441–558: residues 1-440 of Q8N4S9

Tests used:
Test in all cases: co-IP; HEK-293 cells co-transfected with FLAG3-tricellulin constructs and GFP-LSR, lysed 48 h after transfection in modified RIPA buffer; IP with anti-FLAG M2 and Protein A Sepharose at 4 °C; Western blot with anti-LSR and anti-FLAG
[1] = target: FLAG3-Tric∆487–558, tricellulin lacking amino acids 487–558 (human) (UniProt Q8N4S9)
[2] = target: FLAG3-tagged human tricellulin, full length (human) (UniProt Q8N4S9)
[3] = target: FLAG3-Tric∆441–558, tricellulin lacking amino acids 441–558 (human) (UniProt Q8N4S9)

binding [1]: no binding
binding [2]: binds
binding [3]: no binding
B1: GFP-tagged lipolysis-stimulated lipoprotein receptor (LSR)/angulin-1 (protein, UniProt Q99KG5 36-594)
chain: AIQVTVPDPYHVVILFQPVTLHCTYQMSNTLTAPIVIWKYKSFCRDRVADAFSPASVDNQLNAQLAAGNPGYNPYVECQDSVRTVRVVATKQGNAVTLGDYYQGRRITITGNADLTFEQTAWGDSGVYYCSVVSAQDLDGNNEAYAELIVLGRTSEAPELLPGFRAGPLEDWLFVVVVCLASLLFFLLLGICWCQCCPHTCCCYVRCPCCPDKCCCPEALYAAGKAATSGVPSIYAPSIYTHLSPAKTPPPPPAMIPMRPPYGYPGDFDRTSSVGGHSSQVPLLREVDGSVSSEVRSGYRIQANQQDDSMRVLYYMEKELANFDPSRPGPPNGRVERAMSEVTSLHEDDWRSRPSRAPALTPIRDEEWNRHSPRSPRTWEQEPLQEQPRGGWGSGRPRARSVDALDDINRPGSTESGRSSPPSSGRRGRAYAPPRSRSRDDLYDPDDPRDLPHSRDPHYYDDLRSRDPRADPRSRQRSHDPRDAGFRSRDPQYDGRLLEEALKKKGAGERRRVYREEEEEEEEGHYPPAPPPYSETDSQASRERRMKKNLALSRESLVV
